Measurements taken from article doi:10.1101/495762 (bioRxiv, 2018).
No constants are given. Whether binding was seen depends on the method and setting. In cells and extracts the contact can be indirect. Some entries that bind do so weakly or less than the wild type. Where a sequence is shown, tags or fusion partners need not be part of it.

Assays:
[1] = biological target: T1, Smc3(E1155Q, R1222C)-HaloTag (S. cerevisiae) (UniProt P47037); assay: cross-linking
T1 sequence: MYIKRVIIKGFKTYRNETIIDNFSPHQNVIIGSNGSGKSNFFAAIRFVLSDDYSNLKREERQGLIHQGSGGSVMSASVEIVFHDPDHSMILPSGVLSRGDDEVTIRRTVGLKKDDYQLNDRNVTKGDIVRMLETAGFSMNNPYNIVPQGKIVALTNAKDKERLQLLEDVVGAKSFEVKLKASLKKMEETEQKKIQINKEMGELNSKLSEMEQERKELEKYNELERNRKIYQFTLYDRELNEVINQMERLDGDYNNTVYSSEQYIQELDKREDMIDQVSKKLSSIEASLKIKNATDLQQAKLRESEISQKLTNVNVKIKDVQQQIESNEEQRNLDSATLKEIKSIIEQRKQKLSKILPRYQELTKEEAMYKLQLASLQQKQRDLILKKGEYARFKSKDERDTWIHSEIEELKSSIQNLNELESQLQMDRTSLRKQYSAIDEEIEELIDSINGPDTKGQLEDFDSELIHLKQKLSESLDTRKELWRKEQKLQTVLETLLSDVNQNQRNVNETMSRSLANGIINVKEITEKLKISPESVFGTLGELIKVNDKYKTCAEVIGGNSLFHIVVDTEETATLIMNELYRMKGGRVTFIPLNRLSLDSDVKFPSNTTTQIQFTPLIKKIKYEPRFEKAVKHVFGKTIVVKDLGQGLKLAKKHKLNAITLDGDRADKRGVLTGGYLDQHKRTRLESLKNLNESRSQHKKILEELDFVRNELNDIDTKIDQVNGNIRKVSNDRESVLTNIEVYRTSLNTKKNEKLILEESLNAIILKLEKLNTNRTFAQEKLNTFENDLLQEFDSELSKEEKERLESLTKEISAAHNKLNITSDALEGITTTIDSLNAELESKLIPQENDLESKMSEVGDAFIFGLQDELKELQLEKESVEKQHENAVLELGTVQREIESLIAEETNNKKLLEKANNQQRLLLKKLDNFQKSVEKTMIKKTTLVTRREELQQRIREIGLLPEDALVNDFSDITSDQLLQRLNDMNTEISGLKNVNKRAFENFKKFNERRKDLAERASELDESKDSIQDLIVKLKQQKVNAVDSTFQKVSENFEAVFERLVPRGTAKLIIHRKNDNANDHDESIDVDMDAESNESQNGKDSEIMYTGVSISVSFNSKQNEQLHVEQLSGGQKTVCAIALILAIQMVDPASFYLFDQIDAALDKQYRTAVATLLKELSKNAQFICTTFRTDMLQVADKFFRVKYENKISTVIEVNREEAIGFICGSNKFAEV

[2] = biological target: T2, Smc3(R1222C)-HaloTag (S. cerevisiae) (UniProt P47037); assay: cross-linking
T2 sequence: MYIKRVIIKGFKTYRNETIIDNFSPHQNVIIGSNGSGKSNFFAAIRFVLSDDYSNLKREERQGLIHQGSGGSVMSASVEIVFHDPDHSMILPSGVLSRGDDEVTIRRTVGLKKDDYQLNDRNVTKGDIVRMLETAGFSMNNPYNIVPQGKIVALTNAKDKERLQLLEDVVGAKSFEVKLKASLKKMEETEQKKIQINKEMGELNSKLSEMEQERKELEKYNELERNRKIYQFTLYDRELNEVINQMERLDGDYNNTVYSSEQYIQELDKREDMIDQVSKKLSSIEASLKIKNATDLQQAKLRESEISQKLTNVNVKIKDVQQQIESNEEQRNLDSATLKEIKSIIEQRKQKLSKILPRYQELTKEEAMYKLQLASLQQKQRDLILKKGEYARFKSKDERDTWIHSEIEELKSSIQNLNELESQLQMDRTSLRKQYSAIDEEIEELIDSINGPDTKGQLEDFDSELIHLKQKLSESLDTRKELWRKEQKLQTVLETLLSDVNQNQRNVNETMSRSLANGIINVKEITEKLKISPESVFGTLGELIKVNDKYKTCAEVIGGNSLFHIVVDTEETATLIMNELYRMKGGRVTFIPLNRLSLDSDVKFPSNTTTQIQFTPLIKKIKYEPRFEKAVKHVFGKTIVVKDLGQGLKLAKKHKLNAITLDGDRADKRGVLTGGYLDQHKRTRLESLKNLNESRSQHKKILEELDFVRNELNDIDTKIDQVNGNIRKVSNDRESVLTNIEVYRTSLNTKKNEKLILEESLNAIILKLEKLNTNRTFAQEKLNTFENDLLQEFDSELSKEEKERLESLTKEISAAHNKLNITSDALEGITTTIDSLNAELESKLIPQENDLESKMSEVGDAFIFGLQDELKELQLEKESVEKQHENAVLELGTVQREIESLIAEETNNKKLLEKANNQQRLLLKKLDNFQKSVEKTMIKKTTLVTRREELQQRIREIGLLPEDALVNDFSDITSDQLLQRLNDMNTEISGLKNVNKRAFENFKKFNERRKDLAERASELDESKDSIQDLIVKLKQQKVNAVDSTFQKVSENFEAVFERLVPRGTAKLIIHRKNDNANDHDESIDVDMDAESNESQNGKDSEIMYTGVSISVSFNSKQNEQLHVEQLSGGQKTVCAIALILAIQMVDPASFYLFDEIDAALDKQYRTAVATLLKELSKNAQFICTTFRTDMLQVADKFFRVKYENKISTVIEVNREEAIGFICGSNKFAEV

- binding [1]: binds
- binding [2]: binds
B1: Smc1(N1192C) (protein, UniProt P32908 1-1225)
chain: MGRLVGLELSNFKSYRGVTKVGFGESNFTSIIGPNGSGKSNMMDAISFVLGVRSNHLRSNILKDLIYRGVLNDENSDDYDNEGAASSNPQSAYVKAFYQKGNKLVELMRIISRNGDTSYKIDGKTVSYKDYSIFLENENILIKAKNFLVFQGDVEQIAAQSPVELSRMFEEVSGSIQYKKEYEELKEKIEKLSKSATESIKNRRRIHGELKTYKEGINKNEEYRKQLDKKNELQKFQALWQLYHLEQQKEELTDKLSALNSEISSLKGKINNEMKSLQRSKSSFVKESAVISKQKSKLDYIFKDKEKLVSDLRLIKVPQQAAGKRISHIEKRIESLQKDLQRQKTYVERFETQLKVVTRSKEAFEEEIKQSARNYDKFKLNENDLKTYNCLHEKYLTEGGSILEEKIAVLNNDKREIQEELERFNKRADISKRRITEELSITGEKLDTQLNDLRVSLNEKNALHTERLHELKKLQSDIESANNQEYDLNFKLRETLVKIDDLSANQRETMKERKLRENIAMLKRFFPGVKGLVHDLCHPKKEKYGLAVSTILGKNFDSVIVENLTVAQECIAFLKKQRAGTASFIPLDTIETELPTLSLPDSQDYILSINAIDYEPEYEKAMQYVCGDSIICNTLNIAKDLKWKKGIRGKLVTIEGALIHKAGLMTGGISGDANNRWDKEEYQSLMSLKDKLLIQIDELSNGQRSNSIRAREVENSVSLLNSDIANLRTQVTQQKRSLDENRLEIKYHNDLIEKEIQPKITELKKKLDDLENTKDNLVKEKEALQNNIFKEFTSKIGFTIKEYENHSGELMRQQSKELQQLQKQILTVENKLQFETDRLSTTQRRYEKAQKDLENAQVEMKSLEEQEYAIEMKIGSIESKLEEHKNHLDELQKKFVTKQSELNSSEDILEDMNSNLQVLKRERDGIKEDIEKFDLERVTALKNCKISNINIPISSETTIDDLPISSTDNEAITISNSIDINYKGLPKKYKENNTDSARKELEQKIHEVEEILNELQPNARALERYDEAEGRFEVINNETEQLKAEEKKILNQFLKIKKKRKELFEKTFDYVSDHLDAIYRELTKNPNSNVELAGGNASLTIEDEDEPFNAGIKYHATPPLKRFKDMEYLSGGEKTVAALALLFAINSYQPSPFFVLDEVDAALDITNVQRIAAYIRRHRNPDLQFIVISLKCTMFEKSDALVGVYRQQQENSSKIITLDLSNYAE
